The list shows a part of the results. Further columns of the screen follow, without active or inactive calls. Most of these compounds were active or inconclusive in the main read-out, so they are no random draw. Words in brackets tell the shape of the fitted curve; partial curves, single points and poor fits give uncertain potencies.
Assay: qHTS Assay for Lipid Storage Modulators in Drosophila S3 Cells;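 for cell number change: cells counted by Cell Tracker Red CMTPX staining in the red channel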
Settings: BODIPY lipid droplet fluorescence, 18-24 h; for cell number change: measured here: cell count max response, cells fed with added oleic acid
Procedure, shortened: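 Drosophila S3 cells got compounds at several concentrations plus oleic acid (400 uM solution). Laser-scanning cytometry with 488 nm excitation read lipid droplets at 500-530 nm and cells at 575-640 nm. Percent activity was relative to 20 uM Triacsin C.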

[1] = measured here: cell number channel AC50, cells fed with added oleic acid
[2] = measured here: lipid fluorescence (Fed channel) AC50, cells fed with added oleic acid

| SMILES | cell number change | AC50 [1] | AC50 [2] |
| --- | --- | --- | --- |
| Cc1ccc(N2CCCn3c2nc2c3c(=O)n(CCN3CCOCC3)c(=O)n2C)cc1 | -35.1% | 0.731 µM [falling, full curve] | 9.2 µM [falling, partial curve] |
| Cc1cc(C)nc(NC(=O)CSc2nc3cc(Cl)ccc3s2)n1 |  |  | 0.58 µM [rising, single point] |
| CCOc1ccccc1NC(=O)c1ccccc1NS(C)(=O)=O |  |  | 3.66 µM [rising, partial curve] |
| CCOc1ccc(C(=O)Nc2ccccc2N2CCCC2)cc1 | 7% |  | 0.13 µM [falling, full curve, poor fit] |
| Cn1cnc([N+](=O)[O-])c1SCC(O)CCl (stereo not given) | -25.7% | 0.103 µM [falling, full curve, poor fit] |  |
| CCC(=O)Nc1ccc2oc(-c3cccc(C)c3)nc2c1 |  | 3.26 µM [rising, partial curve] | 3.66 µM [rising, partial curve] |
| COC(=O)c1ccc(CNC(=O)C(C)N=C2NS(=O)(=O)c3ccccc32)cc1 (stereo not given) | -7.48% |  |  |
| CCCCCc1cc(=O)oc2c(C(CCN3CCCCC3)c3cc(OC)c(OC)c(OC)c3)c(OC)cc(OC)c12 (stereo not given) | -51.4% | 18.4 µM [falling, single point] | 29.1 µM [falling, single point] |
| CCc1nn(CCCC(=O)Nc2ccc(C)cc2C)c(=O)c2cc3occc3n12 | -15.8% | 0.259 µM [rising, full curve, poor fit] |  |
| CC(C)Cn1cnc2c(=O)oc3ccccc3c21 | 125% | 14.6 µM [rising, partial curve] | 2.31 µM [rising, partial curve] |
| O=C(NCC(c1cccnc1)N1CCN(c2ccc(F)cc2)CC1)c1ccc2c(c1)OCO2 (stereo not given) | 99.2% | 0.164 µM [rising, full curve] | 4.11 µM [rising, partial curve] |
| CSc1ccc(CN(C)C(=O)c2cc(=O)c3ccccc3o2)cc1 | 10.8% |  |  |
| COc1ccccc1/C=C/C=N/N1CCN(Cc2ccccc2)CC1 | -16.7% | 0.0164 µM [falling, full curve, poor fit] | 29.1 µM [falling, single point] |
| NS(=O)(=O)c1ccc(CCNC(=O)CNS(=O)(=O)c2cccc(Br)c2)cc1 | 193% |  |  |
| CCc1ccccc1OCc1nnc(N)s1 | 9.19% |  | 4.11 µM [rising, full curve, poor fit] |
| CC(C)CCC(C(=O)O)C(C)CC(=O)NC1CCCCC1 (stereo not given) | -5.03% |  | 0.517 µM [falling, partial curve, poor fit] |
| COc1ccc(NC(=O)CSc2nc(N)c3cc4c(nc3n2)CC(C)(C)OC4)cc1 |  | 2.31 µM [falling, partial curve, poor fit] |  |
| Cc1ccc(NC2CCCN(C(=O)C3CCCC3)C2)cc1C (stereo not given) | -4.09% |  | 0.291 µM [rising, full curve] |
| CSc1nc2ccc(NS(=O)(=O)c3ccccc3F)cc2s1 | 9.97% |  | 0.13 µM [falling, full curve, poor fit] |
| c1ccc(-c2ccccn2)nc1 | -16.5% |  | 4.11 µM [falling, full curve, poor fit] |
| CC1(C)CC(NC(=O)COc2ccc3ccccc3c2)CC(C)(C)N1 | 33.5% | 6.51 µM [rising, full curve, poor fit] |  |
| COc1ccc(NS(=O)(=O)c2cccs2)cc1S(=O)(=O)N1CCOCC1 | 16.7% |  | 6.51 µM [rising, single point] |
| CSCc1cc(N2CCOCC2)nc(SCc2ccc(Cl)cc2Cl)n1 |  |  | 0.58 µM [rising, single point] |
| O=C(CN1CCN(c2cccc(Cl)c2)CC1)NCc1ccccc1 | -35.4% | 29.1 µM [falling, single point] | 29.1 µM [falling, single point] |
| CCOC(=O)c1c(OCC)[nH]c2c1cc(O)c1ccccc12 | -48.7% | 14.6 µM [falling, partial curve] | 14.6 µM [falling, partial curve] |
| Cc1ccn2c(C(=O)CSc3ccc(Cl)cc3)c(C)nc2c1 | 67.6% | 5.17 µM [rising, full curve] | 13 µM [rising, partial curve] |
| COc1ccccc1N1C(=NC(=O)COc2ccccc2)SC2CS(=O)(=O)CC21 (stereo not given) | -10.4% |  |  |
| CC(C)C(=O)N(c1ccc2oc(=O)sc2c1)S(=O)(=O)c1cccs1 | 1.48% |  | 29.1 µM [falling, single point] |
| COc1ccc(C(=O)NCC(=O)OCC(=O)NCc2cccs2)cc1 | -41% | 18.4 µM [falling, single point] |  |
| N#CCSc1nc(-c2ccccc2)nc2ccc(F)cc12 | 2.36% |  | 29.1 µM [falling, single point] |

2 entries from above in a different format:
CCOc1ccccc1NC(=O)c1ccccc1NS(C)(=O)=O
  AC50 [2]: 3.66 µM [rising, partial curve]
CCCCCc1cc(=O)oc2c(C(CCN3CCCCC3)c3cc(OC)c(OC)c(OC)c3)c(OC)cc(OC)c12 (stereo not given)
  cell number change: -51.4%
  AC50 [1]: 18.4 µM [falling, single point]
  AC50 [2]: 29.1 µM [falling, single point]
